Our source for the binding values is paper PMC10709637, “Phospholipids are imported into mitochondria by VDAC, a dimeric beta barrel scramblase” (Nature Communications, 2023).

These are yes or no findings as the source states them, for the method shown. Some entries that bind do so weakly or less than the wild type. Where a sequence is shown, tags or fusion partners need not be part of it.

The target in assay [1] is T1, C-terminal Twin-Strep-tagged yeast VDAC (Por1-TS) (S. cerevisiae), P04840.
T1 chain: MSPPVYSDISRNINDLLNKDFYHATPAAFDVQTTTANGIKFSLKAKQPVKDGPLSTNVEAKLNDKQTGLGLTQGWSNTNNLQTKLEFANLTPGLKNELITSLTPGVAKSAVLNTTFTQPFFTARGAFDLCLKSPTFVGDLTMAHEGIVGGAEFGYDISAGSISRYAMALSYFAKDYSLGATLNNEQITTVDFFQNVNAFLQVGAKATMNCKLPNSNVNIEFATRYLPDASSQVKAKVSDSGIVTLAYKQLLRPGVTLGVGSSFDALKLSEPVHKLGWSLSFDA
As to the kind of experiment: co-purification (Strep-Tactin XT affinity chromatography, then SEC); Por1-TS over-expressed in yeast, membranes solubilised in 1% LDAO, bound to Strep-Tactin XT, washed in 0.1% LDAO, eluted with 50 mM biotin, SEC in 0.05% LDAO. The note with it: remark: other sources report otherwise.

The target in assay [2] is T2, human VDAC2 (Voltage Dependent Anion Channel 2), N-terminal hexahistidine tagged (human), P45880.
T2 chain: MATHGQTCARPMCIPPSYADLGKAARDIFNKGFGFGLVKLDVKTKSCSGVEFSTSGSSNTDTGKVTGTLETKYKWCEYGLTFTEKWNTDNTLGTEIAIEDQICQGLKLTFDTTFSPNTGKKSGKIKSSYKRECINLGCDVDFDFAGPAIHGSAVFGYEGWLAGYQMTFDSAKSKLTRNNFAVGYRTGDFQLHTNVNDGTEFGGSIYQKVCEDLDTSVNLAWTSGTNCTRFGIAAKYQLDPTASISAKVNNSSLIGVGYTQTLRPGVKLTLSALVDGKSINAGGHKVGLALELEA
The experiment in a line: cross-linking; EGS cross-linking after reconstitution into LUVs (POPC/POPG) in 10 mM MOPS/KOH pH 7.0, 100 mM KCl; 16x mole excess of EGS, 20 °C, 40 min; SDS-PAGE immunoblot (anti-His for human VDAC, anti-VDAC1/Porin for yeast porin); both purified. The note with it: remark: other sources report otherwise.

B1: endogenous Por1 (yeast VDAC), P04840 1-283 (protein)
chain: MSPPVYSDISRNINDLLNKDFYHATPAAFDVQTTTANGIKFSLKAKQPVKDGPLSTNVEAKLNDKQTGLGLTQGWSNTNNLQTKLEFANLTPGLKNELITSLTPGVAKSAVLNTTFTQPFFTARGAFDLCLKSPTFVGDLTMAHEGIVGGAEFGYDISAGSISRYAMALSYFAKDYSLGATLNNEQITTVDFFQNVNAFLQVGAKATMNCKLPNSNVNIEFATRYLPDASSQVKAKVSDSGIVTLAYKQLLRPGVTLGVGSSFDALKLSEPVHKLGWSLSFDA
Consider B1, for which the binding entry in assay [1] is reported as “binds”.

B2: human VDAC2 (Voltage Dependent Anion Channel 2), N-terminal hexahistidine tagged, P45880 1-294 (natural protein)
chain: MATHGQTCARPMCIPPSYADLGKAARDIFNKGFGFGLVKLDVKTKSCSGVEFSTSGSSNTDTGKVTGTLETKYKWCEYGLTFTEKWNTDNTLGTEIAIEDQICQGLKLTFDTTFSPNTGKKSGKIKSSYKRECINLGCDVDFDFAGPAIHGSAVFGYEGWLAGYQMTFDSAKSKLTRNNFAVGYRTGDFQLHTNVNDGTEFGGSIYQKVCEDLDTSVNLAWTSGTNCTRFGIAAKYQLDPTASISAKVNNSSLIGVGYTQTLRPGVKLTLSALVDGKSINAGGHKVGLALELEA
Take B2: the binding result in assay [2] is given as “binds”.
